Test system: HEK1.7 cells
Assay: Subcellular localization of GFP-fused peptides in HEK1.7 cells (ICC, immunoblot of fractions)
Assay type: cell-based, human
Conditions: HEK1.7 cell transfection, 48 hours

Row | Substance | nuclear localization (ICC)
1 | NaviPA1mt2: GFP-fused NaviPA1 mutant, alanine substitution for nine arginine or lysine within predicted polybasic NLS (SSKSAKEAANAAAAAAQAMSSGEEKGDDEKLSKSGSEESIRKKS; GFP fusion) | diminished
2 | NaviPA1mt1: GFP-fused NaviPA1 mutant, alanine substitution for ten serine residues (AAKAAKERRNRRKKKKQKMAAGEEKGDDEKLAKAGAEEAIRKKA; GFP fusion) | observed
